Among the data in patent US20090022664A1 (priority 2007, published 2009) are isolated yield values, retold here.

A short description of this data set: general procedure: Fmoc solid-phase peptide synthesis; Rink amide resin; HBTU/diisopropyl ethyl amine; DCC, HOBt. The settings on record: whole synthesis, scale 0.1 mmol.

For the substance “1-(Toluene-4-sulfonyl)-aziridine-2-carboxylic acid-Gly-Val-βAla-Phe-Gly-amide”, the isolated yield is 7-23%.
